The values that follow come from doi:10.1101/2021.06.19.449113.

By UniProt entry, the sequences of proteins in these tests, tags left out.
UniProt Q8BG87, whole entry: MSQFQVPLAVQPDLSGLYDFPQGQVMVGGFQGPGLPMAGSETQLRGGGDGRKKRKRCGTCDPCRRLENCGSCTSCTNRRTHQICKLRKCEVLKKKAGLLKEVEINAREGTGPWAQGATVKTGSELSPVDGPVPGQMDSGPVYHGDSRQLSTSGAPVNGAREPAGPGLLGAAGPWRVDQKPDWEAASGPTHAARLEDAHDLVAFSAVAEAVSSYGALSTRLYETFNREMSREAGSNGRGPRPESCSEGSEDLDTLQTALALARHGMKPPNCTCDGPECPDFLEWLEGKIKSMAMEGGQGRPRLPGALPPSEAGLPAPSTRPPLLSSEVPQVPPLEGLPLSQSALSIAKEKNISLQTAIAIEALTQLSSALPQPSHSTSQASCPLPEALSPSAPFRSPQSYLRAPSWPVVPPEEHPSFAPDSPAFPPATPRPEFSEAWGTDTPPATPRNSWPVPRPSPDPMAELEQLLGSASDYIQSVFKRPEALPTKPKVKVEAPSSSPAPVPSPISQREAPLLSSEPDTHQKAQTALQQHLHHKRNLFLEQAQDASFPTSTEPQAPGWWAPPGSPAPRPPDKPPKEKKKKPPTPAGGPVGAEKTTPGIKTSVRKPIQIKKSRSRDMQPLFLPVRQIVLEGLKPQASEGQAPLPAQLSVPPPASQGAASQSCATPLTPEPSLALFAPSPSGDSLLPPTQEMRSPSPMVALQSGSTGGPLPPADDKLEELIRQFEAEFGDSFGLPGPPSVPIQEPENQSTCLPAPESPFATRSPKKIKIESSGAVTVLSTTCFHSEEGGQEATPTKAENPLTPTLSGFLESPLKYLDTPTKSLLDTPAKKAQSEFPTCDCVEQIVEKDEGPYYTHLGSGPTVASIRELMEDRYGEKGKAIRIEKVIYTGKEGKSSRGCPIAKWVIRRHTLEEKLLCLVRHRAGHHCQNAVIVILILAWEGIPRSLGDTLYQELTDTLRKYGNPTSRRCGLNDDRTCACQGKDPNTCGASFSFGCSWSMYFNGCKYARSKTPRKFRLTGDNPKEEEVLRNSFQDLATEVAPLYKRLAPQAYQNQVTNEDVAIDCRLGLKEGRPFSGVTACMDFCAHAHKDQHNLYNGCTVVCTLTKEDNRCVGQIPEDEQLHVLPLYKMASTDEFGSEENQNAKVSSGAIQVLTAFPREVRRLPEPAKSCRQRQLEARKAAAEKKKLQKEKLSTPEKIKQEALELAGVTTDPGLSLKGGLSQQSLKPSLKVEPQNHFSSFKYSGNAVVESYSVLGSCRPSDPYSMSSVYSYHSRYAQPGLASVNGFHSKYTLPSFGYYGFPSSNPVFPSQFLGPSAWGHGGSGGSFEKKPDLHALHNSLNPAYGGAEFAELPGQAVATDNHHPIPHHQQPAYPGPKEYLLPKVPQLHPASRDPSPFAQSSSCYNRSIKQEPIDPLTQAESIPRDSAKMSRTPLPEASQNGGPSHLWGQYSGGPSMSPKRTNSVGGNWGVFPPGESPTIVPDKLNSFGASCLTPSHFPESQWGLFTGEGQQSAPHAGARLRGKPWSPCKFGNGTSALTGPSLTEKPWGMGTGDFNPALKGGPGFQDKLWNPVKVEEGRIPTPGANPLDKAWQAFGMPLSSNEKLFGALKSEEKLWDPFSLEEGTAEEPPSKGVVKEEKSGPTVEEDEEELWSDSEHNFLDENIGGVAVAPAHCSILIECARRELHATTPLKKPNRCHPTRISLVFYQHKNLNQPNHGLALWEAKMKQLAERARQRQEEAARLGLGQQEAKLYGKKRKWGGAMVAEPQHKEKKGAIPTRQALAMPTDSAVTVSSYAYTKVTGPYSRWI

No constants are given. Whether binding was seen depends on the method and setting. For some assays here: In cells and extracts the contact can be indirect. Some entries that bind do so weakly or less than the wild type. Sequences can lack the tags named with a protein.

The target of assay [1] is T1, O-linked N-acetylglucosamine (O-GlcNAc) Transferase (OGT) (mouse (endogenous in mESCs)) (UniProt Q8CGY8).
T1 sequence: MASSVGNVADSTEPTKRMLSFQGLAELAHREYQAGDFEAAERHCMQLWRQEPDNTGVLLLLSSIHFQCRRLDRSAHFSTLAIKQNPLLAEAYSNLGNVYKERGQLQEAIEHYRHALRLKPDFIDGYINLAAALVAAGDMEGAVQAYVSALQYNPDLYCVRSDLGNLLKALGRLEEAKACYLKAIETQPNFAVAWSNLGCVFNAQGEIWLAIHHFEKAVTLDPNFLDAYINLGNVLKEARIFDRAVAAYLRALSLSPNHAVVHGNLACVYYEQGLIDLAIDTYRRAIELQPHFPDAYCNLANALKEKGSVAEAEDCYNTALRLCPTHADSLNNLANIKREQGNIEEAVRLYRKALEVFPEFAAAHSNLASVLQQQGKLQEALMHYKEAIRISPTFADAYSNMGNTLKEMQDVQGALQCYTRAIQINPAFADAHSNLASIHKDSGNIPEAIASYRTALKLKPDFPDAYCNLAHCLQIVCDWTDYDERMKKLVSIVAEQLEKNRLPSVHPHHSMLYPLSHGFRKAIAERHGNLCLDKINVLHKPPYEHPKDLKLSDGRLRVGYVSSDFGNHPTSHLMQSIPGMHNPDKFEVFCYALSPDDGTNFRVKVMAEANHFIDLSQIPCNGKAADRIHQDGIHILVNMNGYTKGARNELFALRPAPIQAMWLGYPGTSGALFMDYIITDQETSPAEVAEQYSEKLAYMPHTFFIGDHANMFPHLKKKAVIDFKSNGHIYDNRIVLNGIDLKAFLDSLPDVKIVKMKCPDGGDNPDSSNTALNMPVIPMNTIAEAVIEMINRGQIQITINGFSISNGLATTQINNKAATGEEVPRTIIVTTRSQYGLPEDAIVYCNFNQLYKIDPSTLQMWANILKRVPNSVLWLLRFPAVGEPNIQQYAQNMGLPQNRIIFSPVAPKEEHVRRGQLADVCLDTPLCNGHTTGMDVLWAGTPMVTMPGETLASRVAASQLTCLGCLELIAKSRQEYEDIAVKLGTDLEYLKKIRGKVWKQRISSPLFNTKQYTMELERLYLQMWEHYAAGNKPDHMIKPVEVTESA
The assay is described as follows: SEC.

In assay [2] the target is T2, OGT tagged with GFP (endogenously on both Xs) (mouse (endogenous in LF2 XX mESCs)) (UniProt Q8CGY8).
T2 sequence: T1 sequence
The assay is described as follows: co-IP.

“TET3 (from UniProt Q8BG87 1-1803) (enzyme)”: the binding result in assay [1] and in assay [2] was “binds” each time.
